According to PMC10163288:
The other results are listed elsewhere or left out.

B1: il2ra_site2_3nfp_sap_21_mot_HHH_b1_05437_000000005_0001_40_57_H_._HHH_b1_08057_af2_0001_0000300017_0000001_0_0001 (protein)
chain: SSSSLEEEVERLLKEAEEALEEGDKFEAFAILADAAALVAERDNEELYRKIAELSLEVFEKSSSS
B2: il2ra_site1_2b5i_normal_mot_1b7c2b8d5952c6b49ef050017b44e09d_0001_af2_000000258_0001_1_14_H_._HHH_b2_04057_0001_0000500027_0000001_0_af2pred_0001_af2pred (protein)
chain: SSSSDDEATELAREVLKQLWHLAAQGNPEEVEELAEEARRRLEELGSPAAAEDIRKLLEFLSSSS
B3: il2ra_site2_3nfp_sap_22_mot_HHH_b2_05281_000000198_0001_39_56_H_._HHH_b1_07793_0001_0000100002_0000001_0_0001 (protein)
chain: SSSDEEEVRKLLEEAEKKLEEGNPEEAHRLLAEASQLAWELRNFEAFALVADVAYRFFQSNSSSS
B4: il2ra_site2_3nfp_normal_mot_HHH_b2_07670_af2_000000034_0001_1_17_H_._HHH_b1_07540_af2_0001_0000100001_0000001_0 (protein)
chain: SSSDEEDLELAIEYALIAAKLWGDEEVAKEIEELLERFRKEGDRKYTTEVWELAQEIIEEGSSSS
B5: il2ra_site1_3nfp_normal_mot_HHH_b1_04515_000000241_0001_1_21_H_._78f3cea537ddf5c4686abc92c323a9bd_0001_af2_0001_0000400022_0000001_0 (protein)
chain: DRAVKWLFEAFKRDGIPPEKVAEKIIKEAARSLKVPPEEVAEWLKELAKELGDPELEEALEQALK
B6: il2ra_site1_1z92_sap_11_mot_HHH_b1_07036_000000095_0001_39_53_H_._HHH_b1_02854_af2_0001_0000600026_0000001_0_0001_af2pred_0001_af2pred_1 (protein)
chain: SSSSSSEEERAERATELFKQASKTRDQEEVERLLEEALELAKEANDESAREDIERYLRALSSSSS
B7: il2ra_site2_3nfp_normal_mot_HHH_b2_04451_000000238_0001_21_37_H_._HHH_b1_03083_af2_0001_0000700010_0000001_0 (protein)
chain: SSSSDEEERVKELLEEIKELIEEGDRFEALHLLVEATRVATEGNNEELAREVLRLFAELQSSSSS
B8: il2ra_site1_3nfp_normal_mot_HHH_b1_04285_af2_000000144_0001_40_53_H_._HHH_b2_02112_0001_0000400032_0000001_0 (protein)
chain: SSSSSDRELQEAARLIQRLYKRGDKEELKRALEEAIELAEEENDEKARELLEWLLEDLRNSSSSS
B9: il2ra_site1_3nfp_sap_15_mot_HHH_b2_04910_af2_000000236_0001_1_18_H_._HHH_b2_07743_0001_0000100004_0000001_0_0001_af2pred_0001_af2pred (protein)
chain: SSSSIDVVQRAQELIKEVLRLMNEGDEEEAKELLKELKELAEKTNDPNLKLLVRRLEKKLGSSSS
B10: il2ra_site2_3nfp_normal_mot_HHH_b1_00660_af2_000000090_0001_40_57_H_._HHH_b1_05376_0001_0000100002_0000001_0_af2pred_0001_1_af2pred_swapped (protein)
chain: SSSSDKEEEIEELIRQAKELLENGNPEEAERLLRKASKLALELGDEELFLEILRLLELVKSSSSS
B11: il2ra_site1_2b5i_sap_14_mot_HHH_b2_01684_af2_000000128_0001_1_17_H_._HHH_b1_05605_0001_0000200010_0000001_0_0001_af2pred_dldesign_0_af2pred (protein)
chain: SSSSSSSSDRRALLEEANKAFQAGDVEALEALLERAEAAGWEKVARTIRKAIEALLESSSSSSSS
B12: il2ra_site1_3nfp_sap_19_mot_a5dd4818df477eedd074a4c9ae2630b4_0001_000000020_0001_16_33_H_._69a32af0339682088b0ab7bc0c544914_0001_1_0001_0000700030_0000001_0_000 … (protein)
chain: SSSSDREERVEQLLERAEELYEKGNPREADRLLREALRLASEADDPELRELVERVLREAAGSSSS
B13: il2ra_site1_1z92_sap_16_mot_HHH_b2_02761_000000226_0001_1_18_H_._HHH_b1_02055_af2_0001_0000300048_0000001_0_0001_af2pred_0001_af2pred_1 (protein)
chain: SSSSDLEEFAEEVVERLVHELGLSEHDRKLLERSAELALRAGYSERSIRLALEIAAKQASSSSSS
B14: il2ra_site1_3nfp_normal_mot_HHH_b1_01417_af2_000000204_0001_1_19_H_._HHH_b1_00894_0001_0000400032_0000001_0 (protein)
chain: SSSSSRDEEWTEEAERLAEELGDEELVELLRELLEEAKKKGDQRVARELIKVIAKVQLKYRSSSS
B15: il2ra_site2_3nfp_normal_mot_HHH_b1_04324_000000249_0001_1_20_H_._HHH_b2_01176_0001_0000200009_0000001_0 (protein)
chain: SSSSSEELIRLLRAAVLVLEETLDEEEREELRRVLEELEEEGDPELAHELFQLLQRLQEGSSSSS
B16: il2ra_site1_3nfp_sap_24_mot_HHH_b1_07797_af2_000000242_0001_43_57_H_._HHH_b1_08125_0001_0000700036_0000001_0_0001 (protein)
chain: DEEDQARAIAKLLKRAAGVESVEVEVENNEIEVTFKGNDEAVRRAAEAVKLLAKALGIPVEIETE
B17: il2ra_site2_3nfp_sap_24_mot_66bb1f637706d7249e1dd387c51866da_0001_1_000000188_0001_1_12_H_._HHH_b2_08220_0001_0000200006_0000001_0_0001_af2pred_0001_1_af2pred_s … (protein)
chain: SSSSSDEYHAEALFDFARALAALLGDEETLERVRELLERYREEGDPEYLKEVRRLSEELNSSSSS
B18: il2ra_site2_2erj_normal_mot_2fe55654ba661275baf09010e83dfa6f_0001_1_af2_000000002_0001_33_48_H_._afa99cb2f1b48a14133d328b841439c2_0001_af2_0001_0000300034_00000 … (protein)
chain: TEERREEAEELAGGDPELASLILLALRLLERGVPPEEIEEKLRLFAELLGIPPEKVEEALELAEP

target: il2ra, P01589; assay: yeast display titration

Apparent Kd, inactive:
B1 no binding seen
B2 no binding seen
B3 no binding seen
B4 no binding seen
B5 no binding seen
B6 no binding seen
B7 no binding seen
B8 no binding seen
B9 no binding seen
B10 no binding seen
B11 no binding seen
B12 no binding seen
B13 no binding seen
B14 no binding seen
B15 no binding seen
B16 no binding seen
B17 no binding seen
B18 no binding seen

Pulled one by one from the entries so far:
Apparent Kd, inactive:
B16 no binding seen
B15 no binding seen
